From the supplement of paper PMC8728848
The list shows a part of the results.

Experiments:
Experiment in all cases: glycan array binding signal (z-score within array); higher = stronger binding
Conditions in all cases: glycan notation: IUPAC condensed, linker removed
[1] = target: Neu5Ac(a2-3)Gal(b1-4)GlcNAc(b1-3)Gal(b1-4)GlcNAc(b1-3)Gal(b1-4)GlcNAc
Summary of the method: (§1)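 Glycan array data were curated from 3228 arrays in the Consortium for Functional Glycomics database and kept only where the protein sequence was available. Glycan names were converted to IUPAC-condensed notation, and columns mapping to the same glycan were averaged. The binding signal is a within-array Z-score, averaged across arrays of the same protein sequence at different concentrations or buffers and across linkers. Negative Z-scores can be read as non-binding.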

[2] = target: Neu5Ac(a2-3)Gal(b1-4)GlcNAc(b1-3)Gal(b1-4)GlcNAc(b1-3)Gal(b1-4)GlcNAc(b1-2)Man(a1-3)[Neu5Ac(a2-3)Gal(b1-4)GlcNAc(b1-3)Gal(b1-4)GlcNAc(b1-3)Gal(b1-4)GlcNAc(b1-2)Man(a1-6)]GalNAc
Summary of the method: as §1

[3] = target: Neu5Ac(a2-3)Gal(b1-4)GlcNAc(b1-3)Gal(b1-4)GlcNAc(b1-3)GalNAc
Summary of the method: as §1

[4] = target: Neu5Ac(a2-3)Gal(b1-4)GlcNAc(b1-3)Gal(b1-4)GlcNAc(b1-3)[Neu5Ac(a2-3)Gal(b1-4)GlcNAc(b1-3)Gal(b1-4)GlcNAc(b1-6)]GalNAc
Summary of the method: as §1

[5] = target: Neu5Ac(a2-3)Gal(b1-4)GlcNAc(b1-3)Gal(b1-4)GlcNAc(b1-6)[Gal(b1-3)]GalNAc
Summary of the method: as §1

[6] = target: Neu5Ac(a2-3)Gal(b1-4)GlcNAc(b1-3)Gal(b1-4)[Fuc(a1-3)]GlcNAc
Summary of the method: as §1

[7] = target: Neu5Ac(a2-3)Gal(b1-4)GlcNAc(b1-3)GalNAc
Summary of the method: as §1

[8] = target: Neu5Ac(a2-3)Gal(b1-4)GlcNAc(b1-3)[Neu5Ac(a2-3)Gal(b1-4)GlcNAc(b1-6)]GalNAc
Summary of the method: as §1

[9] = target: Neu5Ac(a2-3)Gal(b1-4)GlcNAc(b1-6)GalNAc
Summary of the method: as §1

[10] = target: Neu5Ac(a2-3)Gal(b1-4)GlcNAc(b1-6)[Gal(b1-3)]GalNAc
Summary of the method: as §1

[11] = target: Neu5Ac(a2-3)Gal(b1-4)GlcNAc(b1-6)[Neu5Ac(a2-3)Gal(b1-3)]GalNAc
Summary of the method: as §1

[12] = target: Neu5Ac(a2-3)Gal(b1-4)GlcNAc6S
Summary of the method: as §1

[13] = target: Neu5Ac(a2-3)Gal(b1-4)[Fuc(a1-3)]GlcNAc
Summary of the method: as §1

[14] = target: Neu5Ac(a2-3)Gal(b1-4)[Fuc(a1-3)]GlcNAc(b1-2)Man
Summary of the method: as §1

[15] = target: Neu5Ac(a2-3)Gal(b1-4)[Fuc(a1-3)]GlcNAc(b1-3)Gal
Summary of the method: as §1

[16] = target: Neu5Ac(a2-3)Gal(b1-4)[Fuc(a1-3)]GlcNAc(b1-3)Gal(b1-4)GlcNAc
Summary of the method: as §1

[17] = target: Neu5Ac(a2-3)Gal(b1-4)[Fuc(a1-3)]GlcNAc(b1-3)Gal(b1-4)[Fuc(a1-3)]GlcNAc(b1-3)Gal(b1-4)[Fuc(a1-3)]GlcNAc
Summary of the method: as §1

[18] = target: Neu5Ac(a2-3)Gal(b1-4)[Fuc(a1-3)]GlcNAc(b1-3)GalNAc
Summary of the method: as §1

[19] = target: Neu5Ac(a2-3)Gal(b1-4)[Fuc(a1-3)]GlcNAc(b1-6)[Gal(b1-3)]GalNAc
Summary of the method: as §1

[20] = target: Neu5Ac(a2-3)Gal(b1-4)[Fuc(a1-3)]GlcNAc(b1-6)[Neu5Ac(a2-3)Gal(b1-3)]GalNAc
Summary of the method: as §1

[21] = target: Neu5Ac(a2-3)Gal(b1-4)[Fuc(a1-3)]GlcNAc6S
Summary of the method: as §1

[22] = target: Neu5Ac(a2-3)Gal6S(b1-4)GlcNAc
Summary of the method: as §1

[23] = target: Neu5Ac(a2-3)Gal6S(b1-4)[Fuc(a1-3)]GlcNAc
Summary of the method: as §1

B1: SspB C123 (Streptococcus gordonii), Q54186 (protein)
chain: MAHFHYSSLLAQPQINKEIKNEDGVDIDRTLVAKQSIGKFELKTEALTAGRPKTTSFVLVDPLPTGYKFDLDATKAASTGFDTTYDEASHTVTFKATDETLATYNADLTKPVETLHPTVVGRVLNDGATYTNNFTLTVNDAYGIKSNVVRVTTPGKPNDPDNPNNNYIKPTKVNKNKEGLNIDGKEVLAGSTNYYELTWDLDQYKGDKSSKEAIQNGFYYVDDYPEEALDVRPDLVKVADEKGNQVSGVSVQQYDSLEAAPKKVQDLLKKANITVKGAFQLFSADNPEEFYKQYVSTGTSLVITDPMTVKSEFGKTGGKYENKAYQIDFGNGYATEVVVNNVPKITPKKDVTVSLDPTSENLDGQTVQLYQTFNYRLIGGFIPQNHSEELEDYSFVDDYDQAGDQYTGNYKTFSSLNLTMKDGSVIKAGTDLTSQTTAETDATNGIVTVRFKEDFLQKISLDSPFQAETYLQMRRIAIGTFENTYVNTVNKVAYASAAALEHHHHHH
glycan array binding signal (z-score) [1]: 1.89 | glycan array binding signal (z-score) [2]: 0.503 | glycan array binding signal (z-score) [3]: 0.115 | glycan array binding signal (z-score) [4]: 0.031 | glycan array binding signal (z-score) [5]: 0.036 | glycan array binding signal (z-score) [6]: 0.208 | glycan array binding signal (z-score) [7]: -1.2 | glycan array binding signal (z-score) [8]: -1.26 | glycan array binding signal (z-score) [9]: 0.695 | glycan array binding signal (z-score) [10]: 0.097 | glycan array binding signal (z-score) [11]: -1.57 | glycan array binding signal (z-score) [12]: -0.085 | glycan array binding signal (z-score) [13]: -0.176 | glycan array binding signal (z-score) [14]: 0.318 | glycan array binding signal (z-score) [15]: 0.014 | glycan array binding signal (z-score) [16]: 0.158 | glycan array binding signal (z-score) [17]: 2.7 | glycan array binding signal (z-score) [18]: 2.98 | glycan array binding signal (z-score) [19]: -0.062 | glycan array binding signal (z-score) [20]: 3.38 | glycan array binding signal (z-score) [21]: 0.086 | glycan array binding signal (z-score) [22]: -0.288 | glycan array binding signal (z-score) [23]: -0.28
